Changes are numbered by the printed parent chain. In names and notes the source's numbering stands. These are yes or no findings as the source states them, for the method shown. Binding seen in cells or lysates may run through a third protein. Some binding calls cover weakened binding; strength is not graded here. For part of these data: Tags and fused reporters may be left off the sequences shown.
What was measured:
[1] = target: T1, GFP-tagged DAPk1 Ca2+-calmodulin (CaM) domain (aa 275-650) (UniProt P53355); test: co-IP; 293T cells transfected with GFP-tagged DAPk1 deletion constructs and infected with HA-Ad-Bik; immunoprecipitation with anti-HA or anti-GFP antibodies; blots for GFP, HA, activated Bak (Fig. 3c)
T1 sequence: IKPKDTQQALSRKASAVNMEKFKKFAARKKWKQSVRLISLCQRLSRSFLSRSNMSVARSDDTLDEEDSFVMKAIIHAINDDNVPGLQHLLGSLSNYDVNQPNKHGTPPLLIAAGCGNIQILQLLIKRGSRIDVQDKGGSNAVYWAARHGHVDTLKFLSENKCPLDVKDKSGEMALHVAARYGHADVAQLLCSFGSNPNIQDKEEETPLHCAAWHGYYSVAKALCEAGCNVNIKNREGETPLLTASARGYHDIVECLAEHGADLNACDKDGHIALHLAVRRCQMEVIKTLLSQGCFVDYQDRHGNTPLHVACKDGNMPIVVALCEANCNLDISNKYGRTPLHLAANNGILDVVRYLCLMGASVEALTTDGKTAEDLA

[2] = target: T2, GFP-tagged DAPk1 kinase domain (aa 1-274) (UniProt P53355); test: as above
T2 sequence: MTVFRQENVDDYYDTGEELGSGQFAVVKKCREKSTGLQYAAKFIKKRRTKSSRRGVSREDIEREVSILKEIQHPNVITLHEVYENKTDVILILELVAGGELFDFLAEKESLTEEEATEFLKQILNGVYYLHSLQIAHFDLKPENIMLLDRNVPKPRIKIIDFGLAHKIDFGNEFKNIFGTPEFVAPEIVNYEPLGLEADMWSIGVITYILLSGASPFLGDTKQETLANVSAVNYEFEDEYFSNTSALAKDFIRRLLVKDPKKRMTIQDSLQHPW

Flag-tagged DAPk1^K42A = target: T3, Flag-tagged DAPk1^K42A (UniProt P53355); test: co-IP; 293T cells transfected with Flag-DAPk1 or Flag-DAPk1^K42A (in Fig. 3m also with empty vector or Bcl-2b5), 48 h later infected with 100 MOI HA-Ad-Bik or HA-Ad-Bik^L61G, 24 h; lysates immunoprecipitated with anti-Flag antibodies; western blot (Fig. 3b, 3d, 3m)
T3 sequence: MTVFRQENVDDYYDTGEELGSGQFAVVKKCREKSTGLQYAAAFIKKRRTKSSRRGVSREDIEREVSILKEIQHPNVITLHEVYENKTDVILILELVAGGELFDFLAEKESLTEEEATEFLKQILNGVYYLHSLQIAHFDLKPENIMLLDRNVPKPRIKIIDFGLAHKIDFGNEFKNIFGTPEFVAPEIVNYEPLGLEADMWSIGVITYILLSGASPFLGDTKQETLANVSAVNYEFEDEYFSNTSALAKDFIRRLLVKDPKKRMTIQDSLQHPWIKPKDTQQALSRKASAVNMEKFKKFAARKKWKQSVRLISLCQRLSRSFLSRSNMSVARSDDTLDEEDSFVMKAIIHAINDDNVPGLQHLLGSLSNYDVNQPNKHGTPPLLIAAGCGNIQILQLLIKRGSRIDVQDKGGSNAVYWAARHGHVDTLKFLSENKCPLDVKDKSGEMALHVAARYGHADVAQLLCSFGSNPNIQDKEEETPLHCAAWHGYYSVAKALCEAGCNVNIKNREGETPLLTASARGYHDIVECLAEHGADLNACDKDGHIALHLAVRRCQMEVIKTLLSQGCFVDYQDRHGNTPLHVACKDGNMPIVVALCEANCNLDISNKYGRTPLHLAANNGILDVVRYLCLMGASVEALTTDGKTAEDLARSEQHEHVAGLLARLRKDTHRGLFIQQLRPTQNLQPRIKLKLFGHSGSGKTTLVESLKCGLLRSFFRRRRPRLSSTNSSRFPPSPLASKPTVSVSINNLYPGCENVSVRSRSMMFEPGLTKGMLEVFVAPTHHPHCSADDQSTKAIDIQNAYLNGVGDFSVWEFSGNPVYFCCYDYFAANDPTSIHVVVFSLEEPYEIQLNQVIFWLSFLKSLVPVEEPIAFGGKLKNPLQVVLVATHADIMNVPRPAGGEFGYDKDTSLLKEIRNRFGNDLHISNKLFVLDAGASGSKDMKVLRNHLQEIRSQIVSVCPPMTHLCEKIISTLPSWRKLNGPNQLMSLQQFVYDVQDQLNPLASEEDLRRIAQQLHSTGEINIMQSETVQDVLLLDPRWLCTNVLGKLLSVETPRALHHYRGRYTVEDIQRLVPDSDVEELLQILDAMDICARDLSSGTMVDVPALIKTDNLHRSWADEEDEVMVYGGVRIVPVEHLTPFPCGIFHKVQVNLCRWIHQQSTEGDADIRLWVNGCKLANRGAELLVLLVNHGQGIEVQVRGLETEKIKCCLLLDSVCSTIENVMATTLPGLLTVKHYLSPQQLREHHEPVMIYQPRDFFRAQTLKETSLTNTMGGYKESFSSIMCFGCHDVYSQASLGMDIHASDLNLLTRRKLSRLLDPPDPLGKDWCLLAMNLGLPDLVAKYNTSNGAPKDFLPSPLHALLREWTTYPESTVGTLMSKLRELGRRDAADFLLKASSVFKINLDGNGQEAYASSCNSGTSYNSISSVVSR

Flag-tagged DAPk1 = Flag-tagged DAPk1 (UniProt P53355); test: as above
[3] = target: T4, Bak^WT, retrovirally expressed, Q16611; test: cross-linking; ER fractions of HCT116 cells transduced with Bak^WT or Bak^Y108A and infected with 100 MOI Ad-Bik; 5 mM BMH, 30 min, room temperature; SDS-PAGE, anti-Bak blot; details: remark: other sources report otherwise
T4 chain: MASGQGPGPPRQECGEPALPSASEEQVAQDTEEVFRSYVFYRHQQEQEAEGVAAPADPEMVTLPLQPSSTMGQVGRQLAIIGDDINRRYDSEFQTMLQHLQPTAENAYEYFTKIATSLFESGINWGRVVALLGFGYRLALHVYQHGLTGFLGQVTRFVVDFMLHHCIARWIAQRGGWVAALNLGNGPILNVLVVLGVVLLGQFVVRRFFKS

[4] = target: Bak^Y108A, retrovirally expressed (UniProt Q16611); test: as above

B1: Bak (endogenous) (protein, UniProt Q16611 1-211)
chain: T4 chain
For B1, the binding [1] was “binds”, the binding [2] was “binds” and the binding (Flag-tagged DAPk1^K42A) was “binds”. For the same binder, the binding (Flag-tagged DAPk1) was “binds”.

B2: Bak^WT, retrovirally expressed, Q16611 1-211 (protein)
chain: T4 chain
With B2 the binding [3] was “binds”.

B3: Bak^Y108A, retrovirally expressed (protein, UniProt Q16611 1-211)
chain: T4 chain with Y108A
For B3, the binding [4] was “binds”.

— article PMC5630627
